The target of experiment [1] is MIS12 (subunit of Mis12C in the KMN structure) (human) (UniProt Q9H081). As to the kind of experiment: cryo-EM structure; eight-subunit KMN (full-length Mis12C, SPC24 109–197/SPC25 92–224, ZWINT, KNL1 2,021–2,342), 0.3 mg/ml with 0.003% Triton; reconstruction at 4.5 Å; model fitted from known structures and AF2 predictions and refined against the map; both purified.
The target in experiment [2] is SPC24_(109–197)/SPC25_(92–224) dimer (human) (UniProt Q8NBT2+Q9HBM1). The description is as above.

By UniProt entry, the sequences of proteins in these tests, tags left out. Where a name states a change or a piece, a line headed by the entry shows the natural chain unless it says otherwise. Residues count along the entry.
UniProt Q9H081: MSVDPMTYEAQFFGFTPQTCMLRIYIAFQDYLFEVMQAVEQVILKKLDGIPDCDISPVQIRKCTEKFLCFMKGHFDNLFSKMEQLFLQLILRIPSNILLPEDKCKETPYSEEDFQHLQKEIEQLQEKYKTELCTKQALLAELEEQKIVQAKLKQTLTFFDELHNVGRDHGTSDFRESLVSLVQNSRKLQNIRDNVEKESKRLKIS
UniProt Q8NBT2: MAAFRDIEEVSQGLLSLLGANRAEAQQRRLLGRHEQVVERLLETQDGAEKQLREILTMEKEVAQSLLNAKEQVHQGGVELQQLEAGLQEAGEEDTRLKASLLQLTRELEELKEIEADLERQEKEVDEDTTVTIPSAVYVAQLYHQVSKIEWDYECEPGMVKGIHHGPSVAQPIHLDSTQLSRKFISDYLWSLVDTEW
UniProt Q9HBM1: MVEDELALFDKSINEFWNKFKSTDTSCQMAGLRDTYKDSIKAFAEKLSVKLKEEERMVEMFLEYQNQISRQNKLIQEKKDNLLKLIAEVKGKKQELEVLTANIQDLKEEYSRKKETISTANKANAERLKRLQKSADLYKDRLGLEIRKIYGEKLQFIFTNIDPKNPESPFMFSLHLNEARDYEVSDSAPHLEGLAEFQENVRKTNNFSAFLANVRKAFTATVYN
UniProt Q96IY1: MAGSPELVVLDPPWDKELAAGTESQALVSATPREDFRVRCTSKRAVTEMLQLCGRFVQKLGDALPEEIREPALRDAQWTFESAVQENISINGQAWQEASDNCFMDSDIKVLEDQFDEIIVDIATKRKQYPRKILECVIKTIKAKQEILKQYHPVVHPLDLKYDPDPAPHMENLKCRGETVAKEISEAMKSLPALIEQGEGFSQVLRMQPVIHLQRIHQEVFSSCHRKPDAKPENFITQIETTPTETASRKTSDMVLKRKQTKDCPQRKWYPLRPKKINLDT
UniProt Q8NG31, residues 2021-2342: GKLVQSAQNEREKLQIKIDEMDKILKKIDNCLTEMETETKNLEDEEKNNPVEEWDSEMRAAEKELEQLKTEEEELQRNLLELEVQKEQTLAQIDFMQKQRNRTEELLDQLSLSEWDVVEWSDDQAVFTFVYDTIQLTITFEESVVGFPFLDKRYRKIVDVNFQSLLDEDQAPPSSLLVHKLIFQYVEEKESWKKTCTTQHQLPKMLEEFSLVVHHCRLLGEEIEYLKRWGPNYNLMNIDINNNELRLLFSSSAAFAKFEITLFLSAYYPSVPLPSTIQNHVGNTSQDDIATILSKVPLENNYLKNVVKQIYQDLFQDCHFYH

No constants are given. Whether binding was seen depends on the method and setting. Some entries that bind do so weakly or less than the wild type.

Turning to “NSL1 (subunit of Mis12C in the KMN structure) (from UniProt Q96IY1 1-281)”, the binding entry in experiment [1] is on record as “binds”. As to “KNL1 residues 2,021–2,342 (from UniProt Q8NG31 2021-2342) (domain or fragment)”, the binding entry in experiment [2] is given as “no binding”.
